Laboratory results from patent US20080038735A1.

Target: cytokine A
Assay: ELISA: in vitro translated dAb-Tus-HA fusion (pIE7t3T) captured on anti-HA, biotinylated cytokine A, strep-HRP

B1: Vk(E5) (protein)
VL: MASTDIQMTQSPSSLSASVGDRVTITCRASQSVSSYLNWYQQKPGKAPKLLIYLASRLQSGVPSRFSGSGSGTDFTLTISSLQPEDFATYYCQQNWWLPPTFGQGTKVEIKRAA
With B1 the binding was “no binding (tested: 100 nM (from the text))”.

Results are given in words; binding and its absence hold for the method and conditions named.
